The source of these data is PubChem BioAssay.

“And” between values parts separate entries of the source, which are not always exact repeats. Identical values can stand only once. This is one part of the list. Further columns of the screen follow, without active or inactive calls. For some of these results: Compounds called inactive in the main read-out are mostly missing here. Peptide text beside a SMILES is read from it.

One assay can be described thus: PubChem AID 1586. Particulars: yeast two-hybrid polyglutamine protein interaction, reporter readout; measured here: averaged growth delta OD.
A short description of assay [1]: enhancers of SMN2 over SMN1 splicing, cell-based, SMN2/SMN1 luciferase reporters (AID 1598). The conditions noted are these: SMN2 vs SMN1 luciferase splicing reporter cells, at 10 µM; SMN1 luciferase ratio: measured here: SMN1 luciferase reporter average; SMN2 luciferase ratio: measured here: SMN2 luciferase reporter average, stronger effect = higher value.
Assay [2] is described as follows: protection against mutant huntingtin cytotoxicity, PC12 cells, LDH release (AID 1610). Particulars: PC12 mutant huntingtin toxicity, final LDH at 4 uM, stronger effect = lower value. Background: LDH in the medium is a marker of cell lysis.

With `CCCc1ncc(C[n+]2ccccc2C)c(N)n1`, the signal change (36 h minus 0 h) in “PubChem AID 1586” worked out at 0.139. For the same compound, in assay [1], the SMN1 luciferase ratio came out at 0.84 and the SMN2 luciferase ratio was 0.92. Moreover, the normalised LDH release in assay [2] was 1.24.
In the assay “PubChem AID 1586”, `CN(C)CCC=C1c2ccccc2C=Cc2ccccc21` displayed a signal change (36 h minus 0 h) of 0.175. In assay [1], the SMN1 luciferase ratio is 0.84 and the SMN2 luciferase ratio was found to be 0.84. In assay [2], this compound gave a normalised LDH release of 1.04.
In the assay “PubChem AID 1586”, `NCCCCC(N)C(=O)NC(Cc1c[nH]c2ccccc12)C(=O)NC(CCCCN)C(=O)O` (stereo not drawn) (H-Lys-Trp-Lys-OH; configuration not given here) registered a signal change (36 h minus 0 h) of 0.061. In assay [1], the SMN1 luciferase ratio worked out at 0.96 and the SMN2 luciferase ratio turned out to be 0.96. In assay [2], this compound showed a normalised LDH release of 0.974.
Regarding `Cc1onc(-c2c(Cl)cccc2Cl)c1C(=O)N[C@@H]1C(=O)N2[C@@H]1SC(C)(C)[C@@H]2C(=O)O`, the signal change (36 h minus 0 h) in “PubChem AID 1586” was 0.041. Further, in assay [1], the SMN1 luciferase ratio is 0.89 and the SMN2 luciferase ratio was determined as 0.91. For the same compound, the normalised LDH release in assay [2] is 1.02.
With `CC(=O)NO`, in “PubChem AID 1586”, the signal change (36 h minus 0 h) was 0.508. Besides, in assay [1], the SMN1 luciferase ratio came to 0.97 and the SMN2 luciferase ratio was found to be 1.07. This compound also showed a normalised LDH release in assay [2] of 0.75.
For `CCN(CC)CCNC(=O)COc1ccc(OC)cc1`, the signal change (36 h minus 0 h) in the assay “PubChem AID 1586” was 0.414. In assay [1], the SMN1 luciferase ratio came to 0.9 and the SMN2 luciferase ratio is 1.05. The compound also registered a normalised LDH release in assay [2] of 0.835.
In the case of `O=C(O)c1cc(=O)c2c(OCC(O)COc3cccc4oc(C(=O)O)cc(=O)c34)cccc2o1`, the signal change (36 h minus 0 h) in “PubChem AID 1586” was 0.0763. Moreover, in assay [1], the SMN1 luciferase ratio worked out at 0.87 and the SMN2 luciferase ratio worked out at 0.99. The normalised LDH release in assay [2] was 1.02.
In the same order, the values of `CC(C)CC(NC(=O)CCN)C(=O)O` (stereo not drawn) are 0.0514, 0.99, 0.96 and 1.
Compound `NC(CO)C(=O)NNCc1ccc(O)c(O)c1O` (stereo not drawn) had a signal change (36 h minus 0 h) in the assay “PubChem AID 1586” of 0.134. Also, in assay [1], the SMN1 luciferase ratio was 1 and the SMN2 luciferase ratio was 0.91. The normalised LDH release in assay [2] stood at 0.476.
For the compound `COc1cc(C)c2c(=O)cc(-c3ccccc3)oc2c1`, in “PubChem AID 1586”, the signal change (36 h minus 0 h) is 0.0467. Moreover, in assay [1], the SMN1 luciferase ratio was found to be 1.26 and the SMN2 luciferase ratio was found to be 1.23. This compound also yielded a normalised LDH release in assay [2] of 0.999.
`NCCc1cnc[nH]1` registered a signal change (36 h minus 0 h) in the assay “PubChem AID 1586” of 0.0425. In addition, in assay [1], the SMN1 luciferase ratio was determined as 0.92 and the SMN2 luciferase ratio was found to be 1.03. Besides, in assay [2], the normalised LDH release worked out at 0.661.
As for `CN(C)C(=O)Oc1cccc([N+](C)(C)C)c1`, the signal change (36 h minus 0 h) in “PubChem AID 1586” is 0.181 and 0.0616. Moreover, in assay [1], the SMN1 luciferase ratio was 0.96 and 0.88; the SMN2 luciferase ratio is 0.9 and 0.89. The normalised LDH release in assay [2] was 0.874 and 0.578.
The compound `NC(Cc1ccc(F)cc1)C(=O)O` (stereo not drawn) yielded a signal change (36 h minus 0 h) in the assay “PubChem AID 1586” of 0.167. Besides, in assay [1], the SMN1 luciferase ratio came out at 0.88 and the SMN2 luciferase ratio is 0.86. For the same compound, the normalised LDH release in assay [2] amounted to 0.924.
The compound `O=c1[nH]cnc2[nH]ncc12` had a signal change (36 h minus 0 h) in “PubChem AID 1586” of 0.0917. In assay [1], the SMN1 luciferase ratio came to 0.88 and the SMN2 luciferase ratio was found to be 0.96. In assay [2], the normalised LDH release turned out to be 0.8.
Consider `COC(=O)C1=C(C)NC(C)=C(C(=O)OC)C1c1ccccc1[N+](=O)[O-]`, for which, in the assay “PubChem AID 1586”, the signal change (36 h minus 0 h) came out at 0.0253. Besides, in assay [1], the SMN1 luciferase ratio is 0.93 and the SMN2 luciferase ratio stood at 0.93. The same compound showed a normalised LDH release in assay [2] of 0.869.
In the assay “PubChem AID 1586”, `CC(C)(Oc1ccc(Cl)cc1)C(=O)O` returned a signal change (36 h minus 0 h) of 0.029. In addition, in assay [1], the SMN1 luciferase ratio stood at 0.93 and the SMN2 luciferase ratio was 1.02. In addition, in assay [2], the normalised LDH release was 0.613.
Turning to `CCN(CC)CCCC(C)Nc1c2ccc(Cl)cc2nc2ccc(OC)cc12` (stereo not drawn), the signal change (36 h minus 0 h) in the assay “PubChem AID 1586” came to 0.0362. Moreover, in assay [1], the SMN1 luciferase ratio came out at 1.08 and the SMN2 luciferase ratio amounted to 1.26. In assay [2], this compound yielded a normalised LDH release of 1.05.
As for `CCCCCCOc1ccccc1C(N)=O`, the signal change (36 h minus 0 h) in the assay “PubChem AID 1586” is 0.112. Also, in assay [1], the SMN1 luciferase ratio worked out at 1.01 and the SMN2 luciferase ratio was 0.94. Further, the normalised LDH release in assay [2] amounted to 0.892.
`CC1(C)S[C@@H]2[C@H](NC(=O)[C@@H](N)c3ccc(O)cc3)C(=O)N2[C@H]1C(=O)O` yielded a signal change (36 h minus 0 h) in the assay “PubChem AID 1586” of 0.207. Besides, in assay [1], the SMN1 luciferase ratio worked out at 0.81 and the SMN2 luciferase ratio was found to be 0.75. In assay [2], this compound had a normalised LDH release of 0.883.
Take `CCC[C@@H]1C[C@@H](C(=O)NC(C(C)Cl)C2O[C@H](SC)[C@H](O)[C@@H](O)[C@H]2O)N(C)C1` (stereo partly drawn): the signal change (36 h minus 0 h) in the assay “PubChem AID 1586” turned out to be 0.095. For the same compound, in assay [1], the SMN1 luciferase ratio worked out at 0.9 and the SMN2 luciferase ratio is 0.9. Further, the normalised LDH release in assay [2] turned out to be 0.754.
For the compound `NC(=O)NC(=O)Cc1ccccc1`, the signal change (36 h minus 0 h) in the assay “PubChem AID 1586” stood at 0.0974. Further, in assay [1], the SMN1 luciferase ratio turned out to be 1.06 and the SMN2 luciferase ratio is 1.01. For the same compound, the normalised LDH release in assay [2] came out at 0.589.
On to `Cn1nnnc1SCC1=C(C(=O)O)N2C(=O)C(NC(=O)C(O)c3ccccc3)C2SC1` (stereo not drawn), for which the signal change (36 h minus 0 h) in “PubChem AID 1586” was found to be 0.083. Moreover, in assay [1], the SMN1 luciferase ratio was 0.88 and the SMN2 luciferase ratio was 0.92. In addition, the normalised LDH release in assay [2] turned out to be 0.909.
In “PubChem AID 1586”, `CC[C@@H](C(=O)[C@@H](C)[C@@H](O)[C@H](C)[C@@H]1O[C@@H]([C@@H](CC)C(=O)O)CC[C@@H]1C)[C@H]1OC2(C=C[C@@H](O)[C@]3(CC[C@@](C)([C@H]4CC[C@](O)(CC)[C@H](C)O4)O3)O2)[C@H](C)C[C@@H]1C` (stereo partly drawn) returned a signal change (36 h minus 0 h) of 0.12. In assay [1], the SMN1 luciferase ratio came to 0.47 and the SMN2 luciferase ratio was 0.55. In assay [2], this compound had a normalised LDH release of 0.954.
In the case of `N[C@@H](CCC(=O)N[C@@H](CS)C(=O)NCC(=O)O)C(=O)O`, in “PubChem AID 1586”, the signal change (36 h minus 0 h) turned out to be 0.133. Besides, in assay [1], the SMN1 luciferase ratio was 0.92 and the SMN2 luciferase ratio worked out at 0.92. The compound further showed a normalised LDH release in assay [2] of 0.436.
Turning to `NC(N)=O`, the signal change (36 h minus 0 h) in “PubChem AID 1586” was 0.136. Moreover, in assay [1], the SMN1 luciferase ratio turned out to be 0.9 and the SMN2 luciferase ratio turned out to be 0.85. The normalised LDH release in assay [2] turned out to be 1.25.
With `COc1cc2c(c(OC)c1OC)-c1ccc(OC)c(=O)cc1[C@@H](NC(C)=O)CC2`, in the assay “PubChem AID 1586”, the signal change (36 h minus 0 h) came to 0.158. For the same compound, in assay [1], the SMN1 luciferase ratio was determined as 1.37 and the SMN2 luciferase ratio was 1.36. This compound also registered a normalised LDH release in assay [2] of 0.937.
In “PubChem AID 1586”, `CN(C)C(=O)C(CCN1CCC(O)(c2ccc(Cl)cc2)CC1)(c1ccccc1)c1ccccc1` gave a signal change (36 h minus 0 h) of 0.21. Moreover, in assay [1], the SMN1 luciferase ratio was 0.83 and the SMN2 luciferase ratio is 0.79. For the same compound, in assay [2], the normalised LDH release was determined as 1.2.
In the same order, the values of `COc1cccc(C(=O)c2ccccc2O)c1O` are 0.0927, 0.95, 0.98 and 0.534.
`C[C@@H]1OC(Oc2c(-c3ccc(O)c(O)c3)oc3cc(O)cc(O)c3c2=O)[C@H](O)[C@H](O)[C@H]1O` (stereo partly drawn) came in with a signal change (36 h minus 0 h) in the assay “PubChem AID 1586” of 0.147. In assay [1], the SMN1 luciferase ratio was determined as 0.89 and the SMN2 luciferase ratio is 0.93. Further, the normalised LDH release in assay [2] came to 1.07.
For the compound `C=C(CC)C(=O)c1ccc(OCC(=O)O)c(Cl)c1Cl`, in “PubChem AID 1586”, the signal change (36 h minus 0 h) was found to be 0.0115. In addition, in assay [1], the SMN1 luciferase ratio was 0.99 and the SMN2 luciferase ratio came to 1.05. The same compound showed a normalised LDH release in assay [2] of 0.827.
In the same order, the values of `CNC[C@H](O)c1cccc(O)c1` are 0.16, 0.94, 0.82 and 0.777.
With `O=C(O)c1ccc(S(=O)(=O)N(Cl)Cl)cc1`, the signal change (36 h minus 0 h) in “PubChem AID 1586” was determined as 0.0628. Moreover, in assay [1], the SMN1 luciferase ratio stood at 0.83 and the SMN2 luciferase ratio worked out at 0.83. The same compound showed a normalised LDH release in assay [2] of 0.872.
With `CCN(CCO)CCCC(C)Nc1ccnc2cc(Cl)ccc12` (stereo not drawn), the signal change (36 h minus 0 h) in the assay “PubChem AID 1586” was 0.119. For the same compound, in assay [1], the SMN1 luciferase ratio amounted to 0.89 and the SMN2 luciferase ratio turned out to be 0.93. The compound also gave a normalised LDH release in assay [2] of 1.16.
For `CCOC(=O)C(C)(C)Oc1ccc(Cl)cc1`, in the assay “PubChem AID 1586”, the signal change (36 h minus 0 h) was 0.43 and 0.167. In assay [1], the SMN1 luciferase ratio was 1.01 and 0.91; the SMN2 luciferase ratio is 1.03 and 0.94. Besides, the normalised LDH release in assay [2] is 0.849 and 0.902.
In the assay “PubChem AID 1586”, `CC(=O)Oc1ccc(C(c2ccc(OC(C)=O)cc2)c2ccccn2)cc1` showed a signal change (36 h minus 0 h) of 0.0911. Besides, in assay [1], the SMN1 luciferase ratio is 0.62 and the SMN2 luciferase ratio worked out at 0.78. In assay [2], this compound returned a normalised LDH release of 0.816.
In the case of `CN1CCCN=C1COC(=O)C(O)(c1ccccc1)C1CCCCC1` (stereo not drawn), the signal change (36 h minus 0 h) in “PubChem AID 1586” stood at 0.0689. Moreover, in assay [1], the SMN1 luciferase ratio was determined as 0.81 and the SMN2 luciferase ratio is 0.91. This compound showed a normalised LDH release in assay [2] of 0.623.
Turning to `Cc1ncc([N+](=O)[O-])n1CCO`, the signal change (36 h minus 0 h) in “PubChem AID 1586” worked out at 0.117. In addition, in assay [1], the SMN1 luciferase ratio is 0.91 and the SMN2 luciferase ratio is 0.83. In assay [2], this compound registered a normalised LDH release of 0.951.
